From publication PMC7862700
This is a selection; strong and weak results do not stand in their true shares. At the low end of the ranking the order means little.

The sequences below were run against SPI1 (UniProt P17947) (assay: DAPPL (digital affinity profiling via proximity ligation, sequencing)). Conditions: 10 mM Tris-HCl pH 7.5, 50 mM NaCl, 1 mM DTT, 4% glycerol, room temperature, 30 min; GST-TFs on glutathione beads, 16-mer random dsDNA library, 0.1% …; high values mean tight binding; double strand, one strand shown; scale: fold enrichment (6-mer frequency, TF over GST control).
With AGCCTA the binding signal was 1.02.
In the case of CATATG, the binding signal is reported as 0.935.
GCGGCA gave a binding signal of 0.804.
For GATGGG, the binding signal was 0.978.
AGAATG was tested, and the binding signal was 1.01.
In the case of CGGCAT, the binding signal is reported as 1.13.
TAGGCA was tested, and the binding signal was 0.979.
GTTCAG showed a binding signal of 0.965.
Work on ACCGGT yielded a binding signal of 0.917.
Sequence CGTAGC has a binding signal of 1.04.
In the case of GTGACT, the binding signal is reported as 0.994.
In the case of GATTCG, the binding signal is reported as 0.983.
For AAAGTC, the binding signal was 0.982.
With CGTTCC the binding signal was 1.44.
GGGGCT showed a binding signal of 0.923.
With AACGGT the binding signal was 0.952.
With GCTAGG the binding signal was 0.882.
AATTTT showed a binding signal of 1.3.
Work on TCAAGC yielded a binding signal of 0.923.
TATGTG showed a binding signal of 1.
Work on ACTCGT yielded a binding signal of 1.17.
ACCCCA showed a binding signal of 1.08.
AGCGAA was tested, and the binding signal was 0.938.
In the case of GATACC, the binding signal is reported as 0.934.
In the case of CGACGG, the binding signal is reported as 0.958.
Work on ACACGG yielded a binding signal of 0.971.
Sequence CTGACA has a binding signal of 1.26.
In the case of CATCGT, the binding signal is reported as 0.892.
Sequence CGCTGC has a binding signal of 1.07.
Work on TACGGG yielded a binding signal of 0.802.
With TCTTGG the binding signal was 1.35.
For AGCCCA, the binding signal was 0.943.
Work on TAGTTG yielded a binding signal of 0.94.
Sequence CGAGCA has a binding signal of 0.993.
For ATCGCG, the binding signal was 0.816.
In the case of TAGACA, the binding signal is reported as 0.986.
For CCCGAT, the binding signal was 1.16.
GCTGGC gave a binding signal of 1.
For TCAAAC, the binding signal was 1.16.
